From the supplement of paper PMC11237882
The other results are listed elsewhere or left out. Values are worked out from sequencing counts and are noisy.

T1: Homer1 EVH1 domain
T1 chain: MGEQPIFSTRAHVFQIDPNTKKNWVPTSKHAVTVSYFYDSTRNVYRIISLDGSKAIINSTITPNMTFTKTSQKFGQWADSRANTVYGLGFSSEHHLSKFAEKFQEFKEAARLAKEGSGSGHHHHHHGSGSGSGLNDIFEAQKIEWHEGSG


Biological target: T1, Homer1 EVH1 domain
Assay: enrichment score (AUC of log2 frequency ratio across FACS sorting rounds) (log2 AUC); higher = stronger enrichment for Homer1 EVH1 binding

Binder	enrichment score
MGHLSAPLHRVRVPWQGLLLTASLLTFWNPPTTAQL	-1.15
VLTATVLNVYASIFLITALSVARYWVVAMAAGPGTH	3.82
TGFIGLDIIASLCNMIMGLTLITLCTWAYIRYSGEY	3.44
KTRHPRKIDLRARYWAFLFDNLRRAVDEIYVTCESD	1.39
PAIGAYLGRVYGDSLMVVLATAIALLDICFILVAVP	2.84
MYAPPEPIIDYNMLVIFILAVGTVAAGGYWAGLTEA	5.15
VSEPIRWKLLMLGLELLFGFFIPLMFMIFCYTFIVK	-0.0959
PRNDDIFKIIMAIVLFFFFSWIPHQIFTFLDVLIQL	-5.09
PALALNQVTGFDLWGSVFATGIICTFYCTLGGLKAD	-0.358
RQSPRRIKPVRIIPSSKRTDATIAKQLLQRAKKGAQ	2.46
MQKLQLCVYIYLFMLIVAGPVDLNENSEQKENVEKE	0.469
WMQGLIAVAVFLVLVAIAFAVNHFWCQEEPEPAHMI	2.59
LGEDKFQWLAGLAPPSLFARAMQVLVTAISPGRFPK	3.03
MRQRLLPSVTSLLLVALLFPGSSQARHVNPSATEAL	3.02
NRTEPEVLCSIIAGLLHFLYPACFTWMLLEGLHLFL	-0.326
VQQKNSLQSESGNLPLWLHKFFPYILLLFAILLYLP	0.523
PQVGNLGLLFMLLFFIFAALGVELFGDLECDETHPW	3.15
MDNRFATTFVIACVLSLISTIYMAASIGTDFWYEYR	3.3
SPYNLAYKYNFEYSVVFNMVLWIMIALALAVIITSY	2.28
YVLYYLAIVGHSLSIFTLVISLGIFVFFRSLGCQRV	1.4
MPPSGLRLLLLLLPLLWLLVLTPGRPAAGLSTCKTN	2.89
PVVIGIPAGAVFILGTLLLWLCQAQKKPFTPAPAPP	1.72
MSPVFPMLTVLTMFYYICLRRRARTATRGEMMNTHR	2.35
MGLFDRGVQMLLTTVGAFAAFSLMTIAVGTDYWLYS	3.46
TITNILALYTGIMSSFRSVQCFCIYTGMTLLFCYFY	0.0682
MGSGRRALSAVPAVLLVLTLPGLPVWAQNDTEPIVL	4
DDILILTVRLAVIVAVILTVPVLFFTDRSSLFELAK	-1.7
SCETILLNSPGPFPFIQDNISFYATIGVCLLFIVVL	-0.668
